Reference: the supplement of paper PMC10849652
The other results are listed elsewhere or left out.

Protein sequences, listed by entry. Tags and fused reporters are not part of them. Lines headed by an entry give the natural chain unless they say otherwise; changes in a name come on top.
UniProt Q9Y2G2: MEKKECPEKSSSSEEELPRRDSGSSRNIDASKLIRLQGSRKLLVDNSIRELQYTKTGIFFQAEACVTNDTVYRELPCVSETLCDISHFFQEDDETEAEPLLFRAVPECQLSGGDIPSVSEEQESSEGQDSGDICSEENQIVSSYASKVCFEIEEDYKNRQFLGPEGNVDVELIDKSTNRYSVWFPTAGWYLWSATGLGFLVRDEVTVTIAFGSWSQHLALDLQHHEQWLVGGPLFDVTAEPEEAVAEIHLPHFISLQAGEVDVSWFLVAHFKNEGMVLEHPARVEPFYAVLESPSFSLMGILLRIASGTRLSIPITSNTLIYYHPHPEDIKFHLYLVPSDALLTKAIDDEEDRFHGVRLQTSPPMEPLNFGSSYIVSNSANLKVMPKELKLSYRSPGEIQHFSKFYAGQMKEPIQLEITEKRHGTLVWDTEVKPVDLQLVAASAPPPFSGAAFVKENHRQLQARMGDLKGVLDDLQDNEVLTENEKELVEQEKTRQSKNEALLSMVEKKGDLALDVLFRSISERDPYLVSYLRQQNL
UniProt Q8N4T8: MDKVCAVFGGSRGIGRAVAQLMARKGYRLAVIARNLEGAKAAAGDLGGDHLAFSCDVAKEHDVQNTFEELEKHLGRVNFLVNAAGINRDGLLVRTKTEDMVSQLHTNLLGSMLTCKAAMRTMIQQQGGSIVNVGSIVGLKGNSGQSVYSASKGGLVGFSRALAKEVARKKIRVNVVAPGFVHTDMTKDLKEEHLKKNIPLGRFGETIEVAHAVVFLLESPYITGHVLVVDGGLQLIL
UniProt P40227, whole entry, looked up: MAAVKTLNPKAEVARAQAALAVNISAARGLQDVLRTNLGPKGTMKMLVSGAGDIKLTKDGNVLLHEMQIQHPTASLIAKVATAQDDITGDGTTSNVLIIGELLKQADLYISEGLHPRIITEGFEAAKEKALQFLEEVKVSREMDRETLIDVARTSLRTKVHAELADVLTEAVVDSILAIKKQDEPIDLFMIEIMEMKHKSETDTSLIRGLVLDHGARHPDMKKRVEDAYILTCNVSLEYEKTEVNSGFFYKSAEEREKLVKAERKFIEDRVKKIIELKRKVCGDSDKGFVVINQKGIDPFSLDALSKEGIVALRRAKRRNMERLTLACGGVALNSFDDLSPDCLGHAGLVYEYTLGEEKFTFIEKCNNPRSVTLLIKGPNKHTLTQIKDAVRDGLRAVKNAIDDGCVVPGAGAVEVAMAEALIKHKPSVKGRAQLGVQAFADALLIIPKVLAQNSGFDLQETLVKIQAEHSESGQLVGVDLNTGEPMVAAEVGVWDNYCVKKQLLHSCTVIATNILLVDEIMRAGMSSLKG
UniProt O95400: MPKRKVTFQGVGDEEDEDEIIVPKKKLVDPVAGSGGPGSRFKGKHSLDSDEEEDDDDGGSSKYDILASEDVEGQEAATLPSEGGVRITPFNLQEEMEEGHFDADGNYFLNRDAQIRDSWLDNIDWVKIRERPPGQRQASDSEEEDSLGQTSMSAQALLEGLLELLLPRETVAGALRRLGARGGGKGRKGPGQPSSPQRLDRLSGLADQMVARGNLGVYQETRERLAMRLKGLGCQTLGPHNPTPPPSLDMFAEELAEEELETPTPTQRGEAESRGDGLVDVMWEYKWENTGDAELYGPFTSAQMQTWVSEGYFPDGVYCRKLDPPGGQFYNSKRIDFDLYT
UniProt Q13191, whole entry, looked up: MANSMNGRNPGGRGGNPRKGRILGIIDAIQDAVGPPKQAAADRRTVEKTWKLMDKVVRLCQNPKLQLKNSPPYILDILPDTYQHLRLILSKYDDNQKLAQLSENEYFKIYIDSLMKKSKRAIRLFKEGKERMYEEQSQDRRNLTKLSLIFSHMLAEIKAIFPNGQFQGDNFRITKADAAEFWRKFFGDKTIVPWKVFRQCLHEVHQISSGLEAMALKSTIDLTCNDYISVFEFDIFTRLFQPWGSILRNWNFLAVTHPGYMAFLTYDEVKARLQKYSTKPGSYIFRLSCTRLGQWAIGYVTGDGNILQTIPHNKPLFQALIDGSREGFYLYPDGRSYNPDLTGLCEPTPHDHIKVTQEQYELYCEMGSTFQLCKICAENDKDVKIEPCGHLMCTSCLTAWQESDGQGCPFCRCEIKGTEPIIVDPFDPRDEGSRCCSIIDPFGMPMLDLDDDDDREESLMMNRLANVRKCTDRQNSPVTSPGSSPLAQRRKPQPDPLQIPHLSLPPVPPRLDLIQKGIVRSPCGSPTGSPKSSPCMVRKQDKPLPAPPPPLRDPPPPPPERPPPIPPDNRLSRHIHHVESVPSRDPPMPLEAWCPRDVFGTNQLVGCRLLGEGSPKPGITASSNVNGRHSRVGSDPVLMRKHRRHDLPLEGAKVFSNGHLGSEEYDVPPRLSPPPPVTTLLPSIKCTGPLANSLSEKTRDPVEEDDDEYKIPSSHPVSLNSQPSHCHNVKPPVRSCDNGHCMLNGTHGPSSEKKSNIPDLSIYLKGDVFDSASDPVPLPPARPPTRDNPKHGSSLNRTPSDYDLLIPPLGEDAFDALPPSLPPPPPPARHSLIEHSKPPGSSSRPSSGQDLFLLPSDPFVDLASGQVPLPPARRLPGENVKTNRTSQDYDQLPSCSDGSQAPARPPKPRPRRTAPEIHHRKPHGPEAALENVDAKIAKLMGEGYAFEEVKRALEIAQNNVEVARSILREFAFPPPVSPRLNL
UniProt P20810: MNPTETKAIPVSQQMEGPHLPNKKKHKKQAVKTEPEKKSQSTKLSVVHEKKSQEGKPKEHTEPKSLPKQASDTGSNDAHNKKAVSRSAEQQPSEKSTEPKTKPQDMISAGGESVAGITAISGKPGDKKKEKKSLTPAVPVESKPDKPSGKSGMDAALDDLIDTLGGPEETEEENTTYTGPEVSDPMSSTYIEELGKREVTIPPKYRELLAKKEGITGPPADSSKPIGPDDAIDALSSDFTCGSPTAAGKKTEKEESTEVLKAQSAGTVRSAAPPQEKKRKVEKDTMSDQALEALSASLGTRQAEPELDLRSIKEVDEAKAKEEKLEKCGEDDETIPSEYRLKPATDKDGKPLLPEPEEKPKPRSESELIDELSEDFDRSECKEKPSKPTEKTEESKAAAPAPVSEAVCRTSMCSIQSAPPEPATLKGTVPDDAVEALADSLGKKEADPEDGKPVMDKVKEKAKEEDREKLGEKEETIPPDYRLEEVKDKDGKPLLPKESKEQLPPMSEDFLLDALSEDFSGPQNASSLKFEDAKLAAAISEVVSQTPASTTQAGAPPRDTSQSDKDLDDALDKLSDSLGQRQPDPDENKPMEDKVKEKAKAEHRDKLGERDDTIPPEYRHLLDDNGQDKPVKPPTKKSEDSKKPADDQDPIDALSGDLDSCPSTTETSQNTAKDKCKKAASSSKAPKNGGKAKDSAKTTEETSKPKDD
UniProt P13987: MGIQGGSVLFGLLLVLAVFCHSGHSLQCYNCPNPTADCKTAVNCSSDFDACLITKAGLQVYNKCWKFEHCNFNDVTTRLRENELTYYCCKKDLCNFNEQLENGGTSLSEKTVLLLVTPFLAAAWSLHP
UniProt Q9Y5K6, whole entry, looked up: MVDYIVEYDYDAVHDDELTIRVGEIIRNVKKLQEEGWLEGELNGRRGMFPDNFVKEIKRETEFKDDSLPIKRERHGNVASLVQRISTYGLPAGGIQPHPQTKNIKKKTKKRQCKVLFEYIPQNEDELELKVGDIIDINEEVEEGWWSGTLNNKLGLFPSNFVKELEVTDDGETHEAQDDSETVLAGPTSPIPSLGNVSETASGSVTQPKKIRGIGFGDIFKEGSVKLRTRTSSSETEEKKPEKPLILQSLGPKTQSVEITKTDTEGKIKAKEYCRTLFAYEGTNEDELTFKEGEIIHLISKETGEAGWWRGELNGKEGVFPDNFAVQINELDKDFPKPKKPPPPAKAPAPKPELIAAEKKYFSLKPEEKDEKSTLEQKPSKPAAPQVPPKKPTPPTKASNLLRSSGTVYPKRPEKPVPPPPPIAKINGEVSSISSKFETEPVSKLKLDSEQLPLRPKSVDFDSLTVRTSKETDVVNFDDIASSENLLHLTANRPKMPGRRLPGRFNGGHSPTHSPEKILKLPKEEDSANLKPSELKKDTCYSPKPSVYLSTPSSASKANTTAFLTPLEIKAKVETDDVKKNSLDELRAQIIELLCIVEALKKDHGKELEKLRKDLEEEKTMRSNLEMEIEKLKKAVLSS
UniProt Q6P4E1: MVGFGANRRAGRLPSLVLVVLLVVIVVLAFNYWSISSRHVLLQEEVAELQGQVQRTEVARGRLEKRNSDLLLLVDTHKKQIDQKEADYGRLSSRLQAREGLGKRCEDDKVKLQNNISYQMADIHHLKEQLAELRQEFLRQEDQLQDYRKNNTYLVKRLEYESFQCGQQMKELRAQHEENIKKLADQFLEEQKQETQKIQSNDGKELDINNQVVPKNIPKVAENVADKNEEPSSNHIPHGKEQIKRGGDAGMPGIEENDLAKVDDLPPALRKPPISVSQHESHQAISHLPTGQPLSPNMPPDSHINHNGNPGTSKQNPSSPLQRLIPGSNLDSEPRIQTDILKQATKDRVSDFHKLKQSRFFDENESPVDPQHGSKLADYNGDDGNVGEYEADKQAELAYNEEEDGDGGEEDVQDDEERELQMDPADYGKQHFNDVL
UniProt O75909: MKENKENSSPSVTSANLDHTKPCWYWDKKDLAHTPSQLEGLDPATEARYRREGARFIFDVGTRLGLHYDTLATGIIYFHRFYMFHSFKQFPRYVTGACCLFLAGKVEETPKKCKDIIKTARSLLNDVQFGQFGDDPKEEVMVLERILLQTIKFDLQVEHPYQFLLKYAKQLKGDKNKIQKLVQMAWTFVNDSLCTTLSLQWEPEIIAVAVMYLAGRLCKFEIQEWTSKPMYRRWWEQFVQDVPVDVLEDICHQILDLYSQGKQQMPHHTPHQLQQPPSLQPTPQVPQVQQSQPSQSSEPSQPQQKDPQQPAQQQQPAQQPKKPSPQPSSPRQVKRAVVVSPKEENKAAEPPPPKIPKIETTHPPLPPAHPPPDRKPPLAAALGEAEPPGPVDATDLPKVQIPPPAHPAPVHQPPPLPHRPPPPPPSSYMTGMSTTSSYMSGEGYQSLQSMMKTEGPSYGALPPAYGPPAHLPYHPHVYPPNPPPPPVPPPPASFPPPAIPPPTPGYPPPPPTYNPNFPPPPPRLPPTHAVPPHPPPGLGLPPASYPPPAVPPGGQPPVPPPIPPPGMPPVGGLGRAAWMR
UniProt P42574: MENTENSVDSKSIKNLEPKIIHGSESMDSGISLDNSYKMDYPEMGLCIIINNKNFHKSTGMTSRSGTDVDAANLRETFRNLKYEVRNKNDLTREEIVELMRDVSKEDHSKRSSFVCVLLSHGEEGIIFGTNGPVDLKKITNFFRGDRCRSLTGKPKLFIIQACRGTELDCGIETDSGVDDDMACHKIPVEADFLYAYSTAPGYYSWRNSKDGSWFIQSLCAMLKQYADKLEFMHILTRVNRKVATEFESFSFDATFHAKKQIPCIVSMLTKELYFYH
UniProt Q567U6, whole entry, looked up: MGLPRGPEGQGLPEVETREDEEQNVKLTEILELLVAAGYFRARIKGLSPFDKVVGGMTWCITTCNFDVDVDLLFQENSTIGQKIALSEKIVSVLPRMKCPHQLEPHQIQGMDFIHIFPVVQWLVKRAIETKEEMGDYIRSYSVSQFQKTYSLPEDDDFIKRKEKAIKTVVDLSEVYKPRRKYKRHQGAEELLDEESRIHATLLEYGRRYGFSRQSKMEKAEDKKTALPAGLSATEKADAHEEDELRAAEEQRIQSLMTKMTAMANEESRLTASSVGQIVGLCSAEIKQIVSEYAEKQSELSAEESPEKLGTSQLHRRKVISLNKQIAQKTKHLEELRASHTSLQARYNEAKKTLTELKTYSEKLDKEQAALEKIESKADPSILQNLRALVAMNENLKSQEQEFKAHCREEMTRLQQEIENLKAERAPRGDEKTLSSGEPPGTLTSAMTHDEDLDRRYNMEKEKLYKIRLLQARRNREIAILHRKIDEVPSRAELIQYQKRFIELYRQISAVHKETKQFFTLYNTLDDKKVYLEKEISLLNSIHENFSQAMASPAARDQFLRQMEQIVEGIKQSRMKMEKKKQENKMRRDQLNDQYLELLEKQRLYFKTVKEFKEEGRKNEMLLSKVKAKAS
UniProt Q4VC31: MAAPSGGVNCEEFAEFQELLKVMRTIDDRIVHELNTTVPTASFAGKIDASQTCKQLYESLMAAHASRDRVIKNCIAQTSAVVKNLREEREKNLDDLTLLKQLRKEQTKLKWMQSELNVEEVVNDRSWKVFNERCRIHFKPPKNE
UniProt Q8IUF1: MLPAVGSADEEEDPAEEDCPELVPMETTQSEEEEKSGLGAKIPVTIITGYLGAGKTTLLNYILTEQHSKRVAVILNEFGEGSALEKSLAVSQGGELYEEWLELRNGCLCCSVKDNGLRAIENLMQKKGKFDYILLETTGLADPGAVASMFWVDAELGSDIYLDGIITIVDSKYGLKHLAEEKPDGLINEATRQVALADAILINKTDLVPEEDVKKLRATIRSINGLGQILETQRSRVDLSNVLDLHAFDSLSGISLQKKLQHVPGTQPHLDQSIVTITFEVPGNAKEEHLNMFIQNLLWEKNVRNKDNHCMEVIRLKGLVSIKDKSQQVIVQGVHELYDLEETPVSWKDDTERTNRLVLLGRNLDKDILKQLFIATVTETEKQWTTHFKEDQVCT

What was measured:
Experiment in all cases: log2 fold change, soluble protein after heating vs DMSO (PISA); higher = thermal stabilisation; K562 lysate, 10 uM; active = over 0.2 and 3.5 SD of the protein, either way, in both replicates (recomputed)
vemurafenib = compound: CCCS(=O)(=O)Nc1ccc(F)c(C(=O)c2c[nH]c3ncc(-c4ccc(Cl)cc4)cc23)c1F [vemurafenib]
How it was run: (§1)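 Dounce homogenisation of K562 pellets in PBS pH 7.4 with 1 mM MgCl2 produced a crude extract, used at 1 mg/mL protein. Exposure to 10 μM compound lasted 30 min, and aliquots were then heated for 3 min across 48°C-58°C, pooled and brought to 0.5% NP-40 at 4°C. The supernatant after 21,000xg for 90 min was quantified by TMTpro 16plex LC-MS/MS with channel sums equalised. Duplicate values are given as log-two fold change in thermal stability relative to solvent controls.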

[1] = compound: CCCS(=O)(=O)Nc1ccc(F)c(C(=O)c2c[nH]c3ncc(Cl)cc23)c1F
How it was run: as §1

barasertib = compound: CCN(CCCOc1ccc2c(Nc3cc(CC(=O)Nc4cccc(F)c4)[nH]n3)ncnc2c1)CCOP(=O)(O)O [barasertib]
How it was run: as §1

[2] = compound: CC[C@@H]1C(=O)N(C)c2cnc(Nc3ccc(C(=O)NC4CCN(C)CC4)cc3OC)nc2N1C1CCCC1
How it was run: as §1

volasertib = compound: CC[C@@H]1C(=O)N(C)c2cnc(Nc3ccc(C(=O)N[C@H]4CC[C@H](N5CCN(CC6CC6)CC5)CC4)cc3OC)nc2N1C(C)C [volasertib]
How it was run: as §1

[3] = compound: CCn1c(C(=O)N(C2CC2)C2CC2)cc2c3c(ncn3C)c(Nc3cc(C)n(C)n3)nc21
How it was run: as §1

[4] = compound: CCn1cc(-c2ccnc3[nH]c(-c4cccc(CN(C)C)c4)cc23)c(-c2ccc(NC(=O)N(C)C)cc2)n1
How it was run: as §1

[5] = compound: CN1CCC(CNc2ccc3ncc(-c4cccc(OC(F)(F)F)c4)n3n2)CC1
How it was run: as §1

saracatinib = compound: CN1CCN(CCOc2cc(OC3CCOCC3)c3c(Nc4c(Cl)ccc5c4OCO5)ncnc3c2)CC1 [saracatinib]
How it was run: as §1

sotrastaurin = compound: CN1CCN(c2nc(C3=C(c4c[nH]c5ccccc45)C(=O)NC3=O)c3ccccc3n2)CC1 [sotrastaurin]
How it was run: as §1

alvocidib = compound: CN1CC[C@H](c2c(O)cc(O)c3c(=O)cc(-c4ccccc4Cl)oc23)[C@H](O)C1 [alvocidib]
How it was run: as §1

Tubastatin A = compound: CN1CCc2c(c3ccccc3n2Cc2ccc(C(=O)NO)cc2)C1 [Tubastatin A]
How it was run: as §1

[6] = compound: CNC(=O)C1=CC=CC=C1NC2=NC(=NC=C2Cl)NC3=C(C=C(C=C3)N4CCOCC4)OC
How it was run: as §1

defactinib = compound: CNC(=O)c1ccc(Nc2ncc(C(F)(F)F)c(NCc3nccnc3N(C)S(C)(=O)=O)n2)cc1 [defactinib]
How it was run: as §1

[7] = compound: CNc1nc(-c2ccc3c(N)n[nH]c3c2)cc(N2C[C@@H](C(=O)NC3CCCCC3)CC[C@H]2C)n1
How it was run: as §1

encorafenib = compound: COC(=O)N[C@@H](C)CNc1nccc(-c2cn(C(C)C)nc2-c2cc(Cl)cc(NS(C)(=O)=O)c2F)n1 [encorafenib]
How it was run: as §1

[8] = compound: COC(=O)[C@H](CCSC)NC(=O)C1=C(C=C(C=C1)NC[C@H](CS)N)C2=CC=CC=C2
How it was run: as §1

alisertib = compound: COc1cc(Nc2ncc3c(n2)-c2ccc(Cl)cc2C(c2c(F)cccc2OC)=NC3)ccc1C(=O)O [alisertib]
How it was run: as §1

[9] = compound: COc1cc2nc(-c3cc(F)ccc3O)nc(N[C@@H]3CNC[C@H]3C(C)(C)O)c2cc1OC
How it was run: as §1

gefitinib = compound: COc1cc2ncnc(Nc3ccc(F)c(Cl)c3)c2cc1OCCCN1CCOCC1 [gefitinib]
How it was run: as §1

Measured: log2 fold change

CARD8 isoform 5 (UniProt Q9Y2G2)
inactive: vemurafenib -0.115 | [1] 0.05 | barasertib 0.08 | [2] 0.095 | volasertib 0.036 | [3] -0.003 | [4] -0.065 | [5] 0.251 | saracatinib -0.056 | sotrastaurin -0.076 | alvocidib -0.005 | Tubastatin A -0.018 | [6] 0.004 | defactinib 0.095 | [7] 0.041 | encorafenib 0.008 | [8] -0.072 | alisertib -0.022 | [9] -0.02 | gefitinib 0.017

CBR4 (UniProt Q8N4T8)
inactive: vemurafenib 0.034 | [1] 0.051 | barasertib 0.018 | [2] 0.091 | volasertib -0.033 | [3] 0.008 | [4] 0.33 | [5] -0.021 | saracatinib -0.062 | sotrastaurin 0.017 | alvocidib 0.013 | Tubastatin A 0.036 | [6] -0.065 | defactinib -0.016 | [7] 0.048 | encorafenib 0.033 | [8] -0.056 | alisertib 0.064 | [9] -0.014 | gefitinib 0.012

CCDC115 (UniProt Q96NT0)
inactive: vemurafenib -0.025 | [1] 0.007 | barasertib 0.012 | [2] 0.004 | volasertib 0 | [3] 0.062 | [4] -0.013 | [5] -0.009 | saracatinib -0.005 | sotrastaurin -0.011 | alvocidib -0.009 | Tubastatin A 0.045 | [6] 0.034 | defactinib 0.005 | [7] 0.047 | encorafenib 0.054 | [8] -0.177 | alisertib -0.001 | [9] -0.037 | gefitinib -0.006

CCDC22 (UniProt O60826)
inactive: vemurafenib -0.054 | [1] 0.026 | barasertib 0.052 | [2] -0.053 | volasertib -0.013 | [3] 0.026 | [4] -0.027 | [5] -0.01 | saracatinib 0.01 | sotrastaurin 0.028 | alvocidib 0.024 | Tubastatin A -0.063 | [6] 0.012 | defactinib -0.03 | [7] 0.009 | encorafenib 0.031 | [8] -0.029 | alisertib 0.002 | [9] -0.009 | gefitinib 0.027

CCT6A (UniProt P40227)
inactive: vemurafenib -0.026 | [1] -0.005 | barasertib -0.03 | [2] -0.006 | volasertib 0.024 | [3] 0.011 | [4] -0.024 | [5] -0.002 | saracatinib -0.004 | sotrastaurin -0.001 | alvocidib 0.027 | Tubastatin A 0.025 | [6] 0.006 | defactinib -0.018 | [7] -0.001 | encorafenib -0.015 | [8] -0.024 | alisertib 0.012 | [9] -0.003 | gefitinib -0.021

CD2BP2 (UniProt O95400)
inactive: vemurafenib -0.005 | [1] 0.033 | barasertib 0.026 | [2] 0.007 | volasertib -0.004 | [3] -0.003 | [4] 0.169 | [5] -0.051 | saracatinib 0.005 | sotrastaurin -0.008 | alvocidib 0.046 | Tubastatin A -0.043 | [6] -0.019 | defactinib 0.011 | [7] 0.002 | encorafenib 0.027 | [8] -0.132 | alisertib -0.001 | [9] -0.01 | gefitinib -0.02

CBLB (UniProt Q13191)
inactive: vemurafenib -0.039 | [1] 0.029 | barasertib -0.026 | [2] 0.083 | volasertib -0.014 | [3] -0.158 | [4] -0.15 | [5] 0.098 | saracatinib -0.022 | sotrastaurin -0.023 | alvocidib -0.018 | Tubastatin A 0.017 | [6] 0.002 | defactinib -0.135 | [7] 0.045 | encorafenib 0.033 | [8] -0.068 | alisertib -0.086 | [9] 0.054 | gefitinib -0.029

CAST isoform 6 (UniProt P20810)
inactive: vemurafenib 0.007 | [1] 0.005 | barasertib -0.035 | [2] 0.059 | volasertib 0.011 | [3] -0.037 | [4] 0.01 | [5] 0.009 | saracatinib -0.001 | sotrastaurin -0.019 | alvocidib -0.002 | Tubastatin A 0.031 | [6] 0.004 | defactinib -0.025 | [7] -0.022 | encorafenib 0.014 | [8] -0.055 | alisertib -0.014 | [9] 0.005 | gefitinib -0.022

CD59 isoform 2 (UniProt P13987)
inactive: vemurafenib 0.026 | [1] -0.05 | barasertib 0.08 | [2] 0.077 | volasertib -0.003 | [3] -0.007 | [4] -0.054 | [5] 0.007 | saracatinib -0.097 | sotrastaurin 0.089 | alvocidib -0.037 | Tubastatin A 0.033 | [6] 0.062 | defactinib -0.047 | [7] 0.032 | encorafenib -0.098 | [8] -0.127 | alisertib -0.02 | [9] 0.062 | gefitinib 0.173

CD2AP (UniProt Q9Y5K6)
inactive: vemurafenib 0.02 | [1] -0.006 | barasertib -0.042 | [2] 0.037 | volasertib 0.012 | [3] -0.026 | [4] -0.034 | [5] 0.011 | saracatinib -0.006 | sotrastaurin 0.001 | alvocidib 0.003 | Tubastatin A 0.061 | [6] 0.011 | defactinib -0.01 | [7] 0.013 | encorafenib -0.004 | [8] -0.061 | alisertib -0.015 | [9] -0.007 | gefitinib 0.023

CASC4 (UniProt Q6P4E1)
inactive: vemurafenib 0 | [1] 0.02 | barasertib -0.02 | [2] 0.009 | volasertib 0.017 | [3] 0.022 | [4] -0.05 | [5] -0.008 | saracatinib -0.003 | sotrastaurin -0.004 | alvocidib -0.03 | Tubastatin A 0.054 | [6] 0.011 | defactinib -0.064 | [7] -0.044 | encorafenib 0.128 | [8] -0.012 | alisertib 0.035 | [9] -0.004 | gefitinib 0.086

CCNK isoform 4 (UniProt O75909)
inactive: vemurafenib -0.013 | [1] 0.006 | barasertib -0.028 | [2] 0.04 | volasertib -0.009 | [3] -0.007 | [4] -0.185 | [5] 0.095 | saracatinib 0.049 | sotrastaurin 0.004 | alvocidib -0.094 | Tubastatin A -0.004 | [6] 0.01 | defactinib -0.011 | [7] 0.009 | encorafenib 0.017 | [8] -0.035 | alisertib 0.071 | [9] 0 | gefitinib 0.046

CASP3 (UniProt P42574)
active: [4] 0.279
inactive: vemurafenib 0.002 | [1] 0.015 | barasertib -0.024 | [2] 0.034 | volasertib 0.013 | [3] -0.011 | [5] -0.049 | saracatinib -0.036 | sotrastaurin -0.013 | alvocidib 0.045 | Tubastatin A 0.056 | [6] 0.066 | defactinib 0.008 | [7] 0.064 | encorafenib 0.011 | [8] -0.061 | alisertib -0.037 | [9] 0.001 | gefitinib -0.001

CCDC93 (UniProt Q567U6)
inactive: vemurafenib 0.021 | [1] 0.007 | barasertib 0.064 | [2] -0.021 | volasertib -0.038 | [3] 0.01 | [4] -0.011 | [5] 0.029 | saracatinib 0.042 | sotrastaurin 0.025 | alvocidib -0.051 | Tubastatin A -0.052 | [6] 0.008 | defactinib 0.002 | [7] -0.017 | encorafenib 0.025 | [8] 0.013 | alisertib 0.081 | [9] 0 | gefitinib -0.015

CCDC58 (UniProt Q4VC31)
inactive: vemurafenib 0.005 | [1] 0 | barasertib 0.006 | [2] 0.049 | volasertib 0.039 | [3] 0.016 | [4] 0.151 | [5] -0.065 | saracatinib -0.013 | sotrastaurin 0.022 | alvocidib 0.06 | Tubastatin A 0.041 | [6] 0.046 | defactinib -0.018 | [7] 0.013 | encorafenib -0.017 | [8] -0.076 | alisertib 0.01 | [9] -0.021 | gefitinib 0.013

2 records drawn at random from those above, as already listed:
CASP3 (UniProt P42574)
active: [4] 0.279
inactive: vemurafenib 0.002 | [1] 0.015 | barasertib -0.024 | [2] 0.034 | volasertib 0.013 | [3] -0.011 | [5] -0.049 | saracatinib -0.036 | sotrastaurin -0.013 | alvocidib 0.045 | Tubastatin A 0.056 | [6] 0.066 | defactinib 0.008 | [7] 0.064 | encorafenib 0.011 | [8] -0.061 | alisertib -0.037 | [9] 0.001 | gefitinib -0.001

CASC4 (UniProt Q6P4E1)
inactive: vemurafenib 0 | [1] 0.02 | barasertib -0.02 | [2] 0.009 | volasertib 0.017 | [3] 0.022 | [4] -0.05 | [5] -0.008 | saracatinib -0.003 | sotrastaurin -0.004 | alvocidib -0.03 | Tubastatin A 0.054 | [6] 0.011 | defactinib -0.064 | [7] -0.044 | encorafenib 0.128 | [8] -0.012 | alisertib 0.035 | [9] -0.004 | gefitinib 0.086

The results go on:

CBWD2 (UniProt Q8IUF1)
inactive: vemurafenib 0.055 | [1] -0.034 | barasertib -0.011 | [2] -0.085 | volasertib -0.019 | [3] 0.001 | [4] -0.054 | [5] -0.064 | saracatinib -0.016 | sotrastaurin 0.035 | alvocidib 0.087 | Tubastatin A 0.009 | [6] 0.019 | defactinib -0.029 | [7] 0.049 | encorafenib 0.04 | [8] 0.093 | alisertib 0.02 | [9] -0.009 | gefitinib -0.018
